Experimental data: PubChem BioAssay AID504774 (Drosophila RNAi Screening Center, 2011)
Assay: 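Genes required for cells to withstand methyl methanesulphonate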 (primary screen). Cells: Drosophila Kc167 cells. Reagents: long dsRNA against Drosophila genes, about 0.25 µg dsRNA per well. Timing: about 6 days: 3 days knock-down, then 3 days with or without MMS. Treatment: methyl methanesulphonate 0.004% (w/v) for 3 days after knock-down. Read-out: 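Viability in wells given MMS, read as ATP luminescence, normalised by quantiles plate by plate and averaged across replicates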. Reading the numbers: mean viability with MMS and viability with MMS: higher = more surviving cells after MMS.
The deposit covers about 23,000 reagents; below is a random part of those with a known target gene and a result. 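Values are quantile-normalised luminescence on an arbitrary scale; higher means more cells surviving MMS.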 Names joined by + are all predicted targets of the reagent. Not all columns of the deposit are shown. Reagent sequences are not shown.

After knock-down of FLASH (FLICE-associated huge protein) [DRSC06872], the screen gave mean viability with MMS 1.87e6; viability with MMS, replicate 1 = 4.06e6.
Silencing of Marf1 (Meiosis regulator and mRNA stability factor 1) [DRSC03747] gave: mean viability with MMS 3.66e6; viability with MMS, replicate 1 = 4.17e6.
Marf1 (Meiosis regulator and mRNA stability factor 1) [DRSC03774] gave mean viability with MMS 3.45e6; viability with MMS, replicate 1 = 4.02e6.
Chsy (Chondroitin sulfate synthase) [DRSC20175] gave mean viability with MMS 3.54e6; viability with MMS, replicate 1 = 3.98e6.
After knock-down of Chsy (Chondroitin sulfate synthase) [DRSC20176], the screen gave mean viability with MMS 3.72e6; viability with MMS, replicate 1 = 4.13e6.
Depletion of Spt6 [DRSC18836] came out at: mean viability with MMS 2.71e6; viability with MMS, replicate 1 = 3.04e6.
For CG9928 [DRSC03274], the entry reads mean viability with MMS 3.53e6; viability with MMS, replicate 1 = 3.99e6.
Silencing of CG6283 [DRSC16009] gave: mean viability with MMS 3.48e6; viability with MMS, replicate 1 = 3.96e6.
Silencing of Ype (Yippee) [DRSC20301] resulted in: mean viability with MMS 3.54e6; viability with MMS, replicate 1 = 3.91e6.
After knock-down of CG2533 [DRSC19855] the results were mean viability with MMS 3.79e6; viability with MMS, replicate 1 = 4.17e6.
CG10866 [DRSC08171] scored mean viability with MMS 3.59e6; viability with MMS, replicate 1 = 3.99e6.
For ninaA (neither inactivation nor afterpotential A) [DRSC00830] the deposit lists mean viability with MMS 3.47e6; viability with MMS, replicate 1 = 3.64e6.
RpL13A (Ribosomal protein L13A) [DRSC12265] gave mean viability with MMS 3.27e6; viability with MMS, replicate 1 = 3.67e6.
Cpr67Fb (Cuticular protein 67Fb) [DRSC10314] showed mean viability with MMS 3.70e6; viability with MMS, replicate 1 = 4.08e6.
Against CG42299 + CG42300 [DRSC19680], the values are mean viability with MMS 3.74e6; viability with MMS, replicate 1 = 4.24e6.
With knock-down of CG42299 + CG42300 [DRSC19815] the results were mean viability with MMS 3.63e6; viability with MMS, replicate 1 = 4.16e6.
For U2af50 (U2 small nuclear riboprotein auxiliary factor 50) [DRSC20297] the deposit lists mean viability with MMS 3.13e6; viability with MMS, replicate 1 = 3.19e6.
U2af50 (U2 small nuclear riboprotein auxiliary factor 50) [DRSC22867] showed mean viability with MMS 3.20e6; viability with MMS, replicate 1 = 3.81e6.

An excerpt from above, reduced to “mean viability with MMS”.
CG9928 [DRSC03274]	3.53e6
CG6283 [DRSC16009]	3.48e6
Ype (Yippee) [DRSC20301]	3.54e6
CG2533 [DRSC19855]	3.79e6
CG10866 [DRSC08171]	3.59e6
ninaA (neither inactivation nor afterpotential A) [DRSC00830]	3.47e6

Continued.
CG6937 [DRSC16140] scored mean viability with MMS 3.45e6; viability with MMS, replicate 1 = 3.90e6.
For Nup205 (Nucleoporin 205kD) [DRSC19432] the deposit lists mean viability with MMS 3.18e6; viability with MMS, replicate 1 = 3.57e6.
Silencing of Inx6 (Innexin 6) [DRSC20579] gave: mean viability with MMS 3.44e6; viability with MMS, replicate 1 = 3.90e6.
Depletion of btl (breathless) [DRSC11331] gave: mean viability with MMS 3.45e6; viability with MMS, replicate 1 = 3.97e6.
With knock-down of CG14292 [DRSC14772] the results were mean viability with MMS 3.49e6; viability with MMS, replicate 1 = 4.14e6.
E5 [DRSC13000] gave mean viability with MMS 3.26e6; viability with MMS, replicate 1 = 3.74e6.
Knock-down of E5 [DRSC16585] resulted in: mean viability with MMS 2.59e6; viability with MMS, replicate 1 = 3.46e6.
Depletion of E5 [DRSC23157] gave: mean viability with MMS 3.40e6; viability with MMS, replicate 1 = 3.81e6.
With knock-down of tws (twins) [DRSC12767], the record shows mean viability with MMS 3.61e6; viability with MMS, replicate 1 = 4.01e6.
Against tws (twins) [DRSC17092], the entry reads mean viability with MMS 3.23e6; viability with MMS, replicate 1 = 3.69e6.
For CG13081 [DRSC02185], the values are mean viability with MMS 3.53e6; viability with MMS, replicate 1 = 4.04e6.
Depletion of CG13921 [DRSC08390] resulted in: mean viability with MMS 3.59e6; viability with MMS, replicate 1 = 4.00e6.
CG15020 [DRSC08474] scored mean viability with MMS 3.55e6; viability with MMS, replicate 1 = 4.01e6.
After knock-down of Mur2B (Mucin related 2B) [DRSC18545], the screen gave mean viability with MMS 3.56e6; viability with MMS, replicate 1 = 3.98e6.
Silencing of Mur2B (Mucin related 2B) [DRSC18546] gave: mean viability with MMS 3.51e6; viability with MMS, replicate 1 = 4.07e6.
With knock-down of CR14117 (pseudo) [DRSC10121], the screen gave mean viability with MMS 3.54e6; viability with MMS, replicate 1 = 4.06e6.
Depletion of CG31600 [DRSC22541] came out at: mean viability with MMS 3.78e6; viability with MMS, replicate 1 = 4.18e6.
Depletion of bnk (bottleneck) [DRSC16912] came out at: mean viability with MMS 3.52e6; viability with MMS, replicate 1 = 3.99e6.
Against Hexim (Hexamethylene bisacetamide inducible) [DRSC15490] the deposit lists mean viability with MMS 3.44e6; viability with MMS, replicate 1 = 3.93e6.
Depletion of CG12426 [DRSC14516] resulted in: mean viability with MMS 3.71e6; viability with MMS, replicate 1 = 4.14e6.
AMPdeam (AMP deaminase) [DRSC18996] scored mean viability with MMS 3.68e6; viability with MMS, replicate 1 = 4.17e6.
After knock-down of AMPdeam (AMP deaminase) [DRSC19366] the results were mean viability with MMS 3.79e6; viability with MMS, replicate 1 = 4.72e6.
AMPdeam (AMP deaminase) [DRSC19368] showed mean viability with MMS 3.68e6; viability with MMS, replicate 1 = 4.21e6.
For AMPdeam (AMP deaminase) [DRSC19727] the deposit lists mean viability with MMS 3.53e6; viability with MMS, replicate 1 = 4.01e6.
foxo (forkhead box, sub-group O) [DRSC13017] scored mean viability with MMS 2.83e6; viability with MMS, replicate 1 = 3.60e6.
Depletion of foxo (forkhead box, sub-group O) [DRSC15463] gave: mean viability with MMS 3.71e6; viability with MMS, replicate 1 = 4.17e6.
For otu (ovarian tumor) [DRSC18811], the values are mean viability with MMS 3.47e6; viability with MMS, replicate 1 = 3.92e6.
